Results on one substance are retold here after US20210023083A1.

Amino acid sequences for entries named in this document (tags omitted). Residues count along the entry.
UniProt Q9HB71, residues 2-228: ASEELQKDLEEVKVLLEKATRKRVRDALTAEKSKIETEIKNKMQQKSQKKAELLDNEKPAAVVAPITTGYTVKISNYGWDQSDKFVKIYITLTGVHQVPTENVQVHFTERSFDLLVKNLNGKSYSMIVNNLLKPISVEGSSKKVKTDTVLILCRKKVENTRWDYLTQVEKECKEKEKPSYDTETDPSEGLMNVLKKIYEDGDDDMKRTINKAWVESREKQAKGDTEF
UniProt Q08AI8: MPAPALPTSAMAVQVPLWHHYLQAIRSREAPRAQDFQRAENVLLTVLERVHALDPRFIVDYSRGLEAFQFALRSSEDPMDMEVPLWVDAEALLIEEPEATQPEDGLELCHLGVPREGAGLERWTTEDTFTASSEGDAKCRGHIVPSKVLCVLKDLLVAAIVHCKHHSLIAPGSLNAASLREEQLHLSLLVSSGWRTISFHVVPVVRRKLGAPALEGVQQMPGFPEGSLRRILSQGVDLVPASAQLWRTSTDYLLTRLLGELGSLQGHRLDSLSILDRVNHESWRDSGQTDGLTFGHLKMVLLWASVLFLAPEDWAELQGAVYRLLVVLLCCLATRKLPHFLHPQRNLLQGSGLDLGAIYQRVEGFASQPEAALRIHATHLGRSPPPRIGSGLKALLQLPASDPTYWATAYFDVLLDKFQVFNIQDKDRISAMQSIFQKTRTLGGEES

Results are given in words; binding and its absence hold for the method and conditions named. In cells and extracts the contact can be indirect. These calls come from enrichment with a bait or labelling near it, and not all partners need be listed.

In this test the target is calcyclin-binding protein (CacyBP) (human) (UniProt Q9HB71). The experiment in a line: BioID proximity labelling in human skin organoids, streptavidin pull-down, mass spectrometry.

Consider “3×HA-BASU-MAB21L4 fusion protein (from UniProt Q08AI8 1-447)”, for which the binding result is given as “binds”.
